According to article doi:10.1101/2024.07.01.601608:
No constants are given. Whether binding was seen depends on the method and setting. Some binding calls cover weakened binding; strength is not graded here. Sequences can lack the tags named with a protein.

The chains behind the UniProt entries cited, without tags or fusion partners.
UniProt Q93074, whole entry: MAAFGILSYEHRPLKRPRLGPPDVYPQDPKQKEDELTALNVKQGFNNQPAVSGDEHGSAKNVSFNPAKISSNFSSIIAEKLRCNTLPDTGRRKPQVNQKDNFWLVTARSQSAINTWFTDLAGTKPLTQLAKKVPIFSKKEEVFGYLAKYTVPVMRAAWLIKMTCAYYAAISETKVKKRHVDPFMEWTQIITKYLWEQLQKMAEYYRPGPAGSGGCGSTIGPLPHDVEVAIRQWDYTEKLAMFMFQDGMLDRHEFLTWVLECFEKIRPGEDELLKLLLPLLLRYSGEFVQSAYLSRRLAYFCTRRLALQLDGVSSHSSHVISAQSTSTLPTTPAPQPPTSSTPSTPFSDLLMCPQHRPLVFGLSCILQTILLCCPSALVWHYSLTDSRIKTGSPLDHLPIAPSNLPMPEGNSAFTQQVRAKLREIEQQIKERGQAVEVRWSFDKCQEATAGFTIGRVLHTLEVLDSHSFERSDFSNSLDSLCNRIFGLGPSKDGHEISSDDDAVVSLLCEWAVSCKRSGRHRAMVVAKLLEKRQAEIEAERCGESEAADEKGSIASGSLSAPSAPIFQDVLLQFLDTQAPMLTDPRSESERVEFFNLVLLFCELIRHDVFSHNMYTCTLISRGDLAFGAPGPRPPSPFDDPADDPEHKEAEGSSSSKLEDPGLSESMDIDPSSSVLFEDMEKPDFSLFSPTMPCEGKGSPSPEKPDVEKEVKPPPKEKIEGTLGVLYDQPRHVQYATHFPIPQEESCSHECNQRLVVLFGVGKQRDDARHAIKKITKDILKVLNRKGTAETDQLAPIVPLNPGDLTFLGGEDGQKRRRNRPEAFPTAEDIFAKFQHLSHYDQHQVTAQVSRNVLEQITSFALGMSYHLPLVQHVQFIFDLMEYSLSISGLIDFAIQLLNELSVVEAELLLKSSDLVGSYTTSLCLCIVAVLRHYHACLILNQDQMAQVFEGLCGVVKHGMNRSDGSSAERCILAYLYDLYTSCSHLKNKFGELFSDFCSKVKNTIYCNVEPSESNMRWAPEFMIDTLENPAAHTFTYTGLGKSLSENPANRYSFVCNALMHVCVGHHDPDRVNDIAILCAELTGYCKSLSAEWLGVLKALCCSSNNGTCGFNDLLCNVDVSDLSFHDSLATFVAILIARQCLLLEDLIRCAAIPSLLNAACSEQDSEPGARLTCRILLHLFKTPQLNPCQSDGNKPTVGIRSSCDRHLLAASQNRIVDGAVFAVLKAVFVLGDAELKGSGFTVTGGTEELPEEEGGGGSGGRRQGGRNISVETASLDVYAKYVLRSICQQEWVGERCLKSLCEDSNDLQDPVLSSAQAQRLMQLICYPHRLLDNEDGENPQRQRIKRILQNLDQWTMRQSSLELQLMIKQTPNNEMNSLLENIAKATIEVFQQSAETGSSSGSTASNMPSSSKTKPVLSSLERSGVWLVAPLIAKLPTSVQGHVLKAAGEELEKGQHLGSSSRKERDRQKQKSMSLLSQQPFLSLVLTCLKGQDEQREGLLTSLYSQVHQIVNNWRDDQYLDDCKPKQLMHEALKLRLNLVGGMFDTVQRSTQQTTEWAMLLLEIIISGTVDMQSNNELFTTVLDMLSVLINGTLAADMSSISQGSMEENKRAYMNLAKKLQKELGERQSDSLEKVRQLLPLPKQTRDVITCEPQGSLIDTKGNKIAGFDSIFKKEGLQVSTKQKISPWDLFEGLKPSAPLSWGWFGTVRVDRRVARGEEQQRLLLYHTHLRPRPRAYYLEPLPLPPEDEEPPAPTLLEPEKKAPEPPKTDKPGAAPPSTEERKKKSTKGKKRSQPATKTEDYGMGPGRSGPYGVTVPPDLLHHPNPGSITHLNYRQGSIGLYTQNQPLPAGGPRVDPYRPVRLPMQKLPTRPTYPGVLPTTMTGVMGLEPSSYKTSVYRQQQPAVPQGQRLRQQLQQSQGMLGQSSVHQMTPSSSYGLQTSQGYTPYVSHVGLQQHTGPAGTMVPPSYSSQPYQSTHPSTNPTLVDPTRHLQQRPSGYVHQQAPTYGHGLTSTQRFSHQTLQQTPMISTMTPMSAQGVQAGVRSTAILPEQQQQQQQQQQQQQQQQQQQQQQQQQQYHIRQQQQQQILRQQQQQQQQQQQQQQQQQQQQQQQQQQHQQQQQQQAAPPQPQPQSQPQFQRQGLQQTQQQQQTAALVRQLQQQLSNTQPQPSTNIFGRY

What was measured:
[1] = molecular target: MED12 (endogenous) (human (endogenous in 293-F)), Q93074; test: cross-linking; conditions: remark: other sources report otherwise
[2] = molecular target: MED13 (endogenous) (human (endogenous in 293-F)), Q9UHV7; test: cross-linking; conditions: remark: other sources report otherwise
[3] = molecular target: T1, GST-MED13 IDRc (residues 500-1069) (human) (UniProt Q9UHV7); test: pull-down
T1 sequence: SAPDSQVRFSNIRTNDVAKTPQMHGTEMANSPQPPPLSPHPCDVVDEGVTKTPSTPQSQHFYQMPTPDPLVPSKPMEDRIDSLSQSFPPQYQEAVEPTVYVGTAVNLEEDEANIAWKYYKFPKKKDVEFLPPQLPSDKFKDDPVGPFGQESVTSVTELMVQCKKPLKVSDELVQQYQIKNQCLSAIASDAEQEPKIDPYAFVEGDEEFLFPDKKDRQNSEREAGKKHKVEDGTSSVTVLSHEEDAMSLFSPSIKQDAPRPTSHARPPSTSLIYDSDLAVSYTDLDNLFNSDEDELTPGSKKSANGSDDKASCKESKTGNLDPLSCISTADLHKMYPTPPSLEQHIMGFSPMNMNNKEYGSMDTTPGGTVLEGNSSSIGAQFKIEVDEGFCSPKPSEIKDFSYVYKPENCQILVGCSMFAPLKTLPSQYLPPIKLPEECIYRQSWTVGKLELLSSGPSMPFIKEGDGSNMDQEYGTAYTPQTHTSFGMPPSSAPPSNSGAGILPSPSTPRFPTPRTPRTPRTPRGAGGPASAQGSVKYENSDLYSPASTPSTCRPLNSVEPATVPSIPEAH

B1: Flag-tagged CDK8 expressed in 293-F cells, P49336 1-464 (enzyme)
chain: MDYDFKVKLSSERERVEDLFEYEGCKVGRGTYGHVYKAKRKDGKDDKDYALKQIEGTGISMSACREIALLRELKHPNVISLQKVFLSHADRKVWLLFDYAEHDLWHIIKFHRASKANKKPVQLPRGMVKSLLYQILDGIHYLHANWVLHRDLKPANILVMGEGPERGRVKIADMGFARLFNSPLKPLADLDPVVVTFWYRAPELLLGARHYTKAIDIWAIGCIFAELLTSEPIFHCRQEDIKTSNPYHHDQLDRIFNVMGFPADKDWEDIKKMPEHSTLMKDFRRNTYTNCSLIKYMEKHKVKPDSKAFHLLQKLLTMDPIKRITSEQAMQDPYFLEDPLPTSDVFAGCQIPYPKREFLTEEEPDDKGDKKNQQQQQGNNHTNGTGHPGNQDSSHTQGPPLKKVRVVPPTTTSGGLIMTSDYQRSNPHAAYPNPGPSTSQPQSSMGYSATSQQPPQYSHQTHRY
- binding [1]: binds
- binding [2]: binds

B2: CCNC (endogenous), P24863 1-283 (protein)
chain: MAGNFWQSSHYLQWILDKQDLLKERQKDLKFLSEEEYWKLQIFFTNVIQALGEHLKLRQQVIATATVYFKRFYARYSLKSIDPVLMAPTCVFLASKVEEFGVVSNTRLIAAATSVLKTRFSYAFPKEFPYRMNHILECEFYLLELMDCCLIVYHPYRPLLQYVQDMGQEDMLLPLAWRIVNDTYRTDLCLLYPPFMIALACLHVACVVQQKDARQWFAELSVDMEKILEIIRVILKLYEQWKNFDERKEMATILSKMPKPKPPPNSEGEQGPNGSQNSSYSQS
- binding [2]: binds

B3: MED26 (endogenous) (protein, UniProt O95402 1-600)
chain: MTAAPASPQQIRDRLLQAIDPQSNIRNMVAVLEVISSLEKYPITKEALEETRLGKLINDVRKKTKNEELAKRAKKLLRSWQKLIEPAHQHEAALRGLAGATGSANGGAHNCRPEVGAAGPPRSIHDLKSRNDLQRLPGQRLDRLGSRKRRGDQRDLGHPGPPPKVSKASHDPLVPNSSPLPTNGISGSPESFASSLDGSGHAGPEGSRLERDENDKHSGKIPVNAVRPHTSSPGLGKPPGPCLQPKASVLQQLDRVDETPGPPHPKGPPRCSFSPRNSRHEGSFARQQSLYAPKGSVPSPSPRPQALDATQVPSPLPLAQPSTPPVRRLELLPSAESPVCWLEQPESHQRLAGPGCKAGLSPAEPLLSRAGFSPDSSKADSDAASSGGSDSKKKKRYRPRDYTVNLDGQVAEAGVKPVRLKERKLTFDPMTRQIKPLTQKEPVRADSPVHMEQQSRTELDKQEAKASLQSPFEQTNWKELSRNEIIQSYLSRQSSLLSSSGAQTPGAHHFMSEYLKQEESTRQGARQLHVLVPQSPPTDLPGLTREVTQDDLDRIQASQWPGVNGCQDTQGNWYDWTQCISLDPHGDDGRLNILPYVCLD
- binding [3]: no binding
